The subject of the assay is CEM cells HIV-1 protection, formazan growth assay. Briefly: NCI AIDS Antiviral Assay. Summed up: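 Soluble formazan readout of cell growth; CEM cells ± HIV-1; 5 drug concs. ≥50% protection → retest; ≥50% again = moderately active; reproducible 100% = confirmed active.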

What is called EC50 is the concentration needed to bring the measured effect to its halfway point. Broadly, the IC50 is the point on the concentration scale where inhibition reaches its midpoint.

Turning to `COc1c(O)cc2c(c1OC)-c1ccc(OC)c(=O)cc1[C@@H](NC(C)=O)CC2`, the EC50 is above 200 nM. Also, under “measured here: growth of uninfected CEM cells”, the 50% inhibitory concentration (IC50) came to 32.4 nM.

Values taken from PubChem BioAssay AID179 (DTP/NCI, 2004).
